Source: patent US6746835B2, “Thermally processed image recording material” (Fuji Photo Film Co., Ltd., priority 2001, dated 2004)

Legend:
[1] = Photographic performance (Dmin, Dmax, contrast) before and after storage of heat-developed image recording material; details: for Contrast After storage / Dmax After storage / Dmin After storage: stored at 50° C. for 3 days
[2] = Development humidity dependency, contrast, sensitivity, Dmin and Dmax of heat-developed image recording material; details: for Dmax / Dmin: 25° C. and relative humidity of 50%; for Variation of line width (development humidity dependency): 30° C./75% RH vs 20° C./20% RH, exposed at line width of 60 μm; for Sensitivity: relative value of reciprocal of exposure giving density higher than Dmin by 1.5
[3] = Table 1, addition amount 5 mmol/Agmol
[4] = Table 1, addition amount 7 mmol/Agmol
[5] = Table 1, addition amount 30 mmol/Agmol
[6] = Table 3, addition amount 30 mmol/Agmol
[7] = Table 3, addition amount 25 mmol/Agmol

SMILES: O=C1/C(=C/[O-])N=C(c2cc(C(F)(F)F)cc(C(F)(F)F)c2)N1c1ccc(Cl)cc1.[Na+] [Compound A-6]
- Contrast Before storage [1, 3]: 20.5
- Dmax Before storage [1, 3]: 4.5
- Dmin Before storage [1, 3]: 0.13
- Contrast After storage [1, 3]: 19.0
- Dmax After storage [1, 3]: 4.3
- Dmin After storage [1, 3]: 0.16

SMILES: CCCCCCCCCCCCNc1ccc(N2C(=O)/C(=C\[O-])N=C2C(F)(F)F)cc1.[K+] [Compound A-18]
- Contrast Before storage [1, 4]: 20.0
- Dmax Before storage [1, 4]: 4.2
- Dmin Before storage [1, 4]: 0.12
- Contrast After storage [1, 4]: 19.5
- Dmax After storage [1, 4]: 4.1
- Dmin After storage [1, 4]: 0.13

SMILES: CCCCCCCCCCCCC1(CCCCCCCCCCCC)C(=O)OC(=C[O-])C1=O.[Na+] [Compound D-28]
- Contrast ([2]; addition amount 5 mmol/Agmol): 21.5
- Dmax ([2]; addition amount 5 mmol/Agmol): 4.50
- Dmin ([2]; addition amount 5 mmol/Agmol): 0.12
- Variation of line width (development humidity dependency) ([2]; addition amount 5 mmol/Agmol): 6.4 μm
- Sensitivity ([2]; addition amount 5 mmol/Agmol): 1.49

SMILES: CCCCCCCCCCCCNC(=O)c1ccc(Cl)c(C2=N/C(=C/[O-])C(=O)C2(C)C)c1.[Na+] [Compound D-44]
- Contrast ([2]; addition amount 5 mmol/Agmol): 18.5
- Dmax ([2]; addition amount 5 mmol/Agmol): 4.25
- Dmin ([2]; addition amount 5 mmol/Agmol): 0.14
- Variation of line width (development humidity dependency) ([2]; addition amount 5 mmol/Agmol): 8.8 μm
- Sensitivity ([2]; addition amount 5 mmol/Agmol): 1.47

SMILES: CCCCCCCCCCCCc1cc(CCCCCCCCCCCC)cc(N2N=C/C(=C/[O-])C2=O)c1.[K+] [Compound R-1]
- Contrast Before storage [1, 5]: Measurement was
- Dmax Before storage [1, 5]: 2.8
- Dmin Before storage [1, 5]: 0.14
- Contrast After storage [1, 5]: Measurement was
- Dmax After storage [1, 5]: 2.7
- Dmin After storage [1, 5]: 0.15

SMILES: CCCCCCCCCCCCCCCc1cccc(CCCN2C(=O)/C(=C\[O-])c3ccccc32)c1.[Na+] [Compound R-2]
- Contrast Before storage [1, 3]: 16.5
- Dmax Before storage [1, 3]: 3.9
- Dmin Before storage [1, 3]: 0.13
- Contrast After storage [1, 3]: Measurement was
- Dmax After storage [1, 3]: 3.3
- Dmin After storage [1, 3]: 1.1

SMILES: CN1C(=O)C(=C[O-])N=C1c1ccccc1.[Na+] [RF-1]
- Contrast ([2]; addition amount 5 mmol/Agmol): 13.4
- Dmax ([2]; addition amount 5 mmol/Agmol): 4.20
- Dmin ([2]; addition amount 5 mmol/Agmol): 0.13
- Variation of line width (development humidity dependency) ([2]; addition amount 5 mmol/Agmol): 14.2 μm
- Sensitivity ([2]; addition amount 5 mmol/Agmol): 1.33
- Contrast ([2]; addition amount 20 mmol/Agmol): 16.8
- Dmax ([2]; addition amount 20 mmol/Agmol): 3.96
- Dmin ([2]; addition amount 20 mmol/Agmol): 0.17
- Variation of line width (development humidity dependency) ([2]; addition amount 20 mmol/Agmol): 17.6 μm
- Sensitivity ([2]; addition amount 20 mmol/Agmol): 1.40

SMILES: CCO/C=C1/N=C(c2ccccc2)OC1=O [RF-2]
- Contrast ([2]; addition amount 5 mmol/Agmol): 12.2
- Dmax ([2]; addition amount 5 mmol/Agmol): 3.22
- Dmin ([2]; addition amount 5 mmol/Agmol): 0.15
- Variation of line width (development humidity dependency) ([2]; addition amount 5 mmol/Agmol): 12.4 μm
- Sensitivity ([2]; addition amount 5 mmol/Agmol): 1.25
- Contrast ([2]; addition amount 20 mmol/Agmol): 15.9
- Dmax ([2]; addition amount 20 mmol/Agmol): 4.01
- Dmin ([2]; addition amount 20 mmol/Agmol): 0.22
- Variation of line width (development humidity dependency) ([2]; addition amount 20 mmol/Agmol): 15.3 μm
- Sensitivity ([2]; addition amount 20 mmol/Agmol): 1.35

SMILES: COc1ccc(NNC=O)cc1 [R′-1]
- Contrast Before storage [1, 6]: 17.2
- Dmax Before storage [1, 6]: 3.8
- Dmin Before storage [1, 6]: 0.14
- Contrast After storage [1, 6]: 9.1
- Dmax After storage [1, 6]: 3.4
- Dmin After storage [1, 6]: 0.23

SMILES: CCO/C=C1\N=C(c2ccccc2)N(C)C1=O [R′-5]
- Contrast Before storage [1, 7]: 16.0
- Dmax Before storage [1, 7]: 3.9
- Dmin Before storage [1, 7]: 0.13
- Contrast After storage [1, 7]: 11.0
- Dmax After storage [1, 7]: 3.2
- Dmin After storage [1, 7]: 0.19
